These are yes or no findings as the source states them, for the method shown. Binding seen in cells or lysates may run through a third protein. These calls come from enrichment with a bait or labelling near it, and not all partners need be listed.

The assay has as its target Kif21b (endogenous, E18.5 mouse cortex) (mouse (endogenous in E18.5 cortex)). The experiment in a line: affinity purification with mass spectrometry.

B1: Drebrin (Dbn1) (protein, UniProt Q9QXS6 1-706)
chain: MAGVSFSGHRLELLAAYEEVIREESAADWALYTYEDGSDDLKLAASGEGGLQELSGHFENQKVMYGFCSVKDSQAALPKYVLINWVGEDVPDARKCACASHVAKVAEFFQGVDVIVNASSVEDIDAGAIGQRLSNGLARLSSPVLHRLRLREDENAEPVGTTYQKTDAAVEMKRINREQFWEQAKKEEELRKEEERKKALDARLRFEQERMEQERQEQEERERRYREREQQIEEHRRKQQSLEAEEAKRRLKEQSIFGDQRDEEEESQMKKSESEVEEAAAIIAQRPDNPREFFRQQERVASASGGSCDAPAPAPFNHRPGRPYCPFIKASDSGPSSSSSSSSSPPRTPFPYITCHRTPNLSSSLPCSHLDSHRRMAPTPIPTRSPSDSSTASTPIAEQIERALDEVTSSQPPPPPPPPPPTQEAQETTPSLDEELSKEAKVTAAPEVWAGCAAEPPQAQEPPLLQSSPLEDSMCTESPEQAALAAPAEPAASVTSVADVHAADTIETTTATTDTTIANNVTPAAASLIDLWPGNGEEASTLQAEPRVPTPPSGAEASLAEVPLLNEAAQEPLPPVGEGCANLLNFDELPEPPATFCDPEEEVGETLAASQVLTMPSALEEVDQVLEQELEPEPHLLTNGETTQKEGTQASEGYFSQSQEEEFAQSEEPCAKVPPPVFYNKPPEIDITCWDADPVPEEEEGFEGGD
Turning to B1, the binding entry is “binds”.
